Measurements as given in US7732473B2, “Compounds with nootropic action, their preparation, pharmaceutical compositions containing them, and use thereof” (Neurotune AG, priority 2006, dated 2010).
At least one read-out could not be matched to a standard name with certainty.

Tested on: rat model of mononeuropathy dx
Experiment: Paw-pressure test in rat chronic constriction injury model of mononeuropathy, injured paw (dx)
Type: in vivo
Conditions: 14 days after operation, i.c.v., dose per compound as in table (3-300 μg), administered 30-45 min before test, mean of at least 8 rats
Source text: Pharmacological Methods Chronic Constriction Injury Model
A peripheral mononeuropathy was produced in adult rats by placing loosely constrictive ligatures around the common sciatic nerve according to the method described by Bennett & Xie (Pain […], 33, 87-107).
Rats were anesthetized with chloral hydrate. The common sciatic nerve was exposed at the level of the middle of the thigh by blunt dissection through biceps femoris. Proximal to sciatica's trifurcation, about 1 cm of the nerve was freed of adhering tissue and four ligatures (3/0 silk tread) were tied loosely around it with about 1 mm spacing. The length of the nerve thus affected was […]. Great care was taken to tie the ligatures such that the diameter of the nerve was seen to be just barely constricted when viewed with 40× magnification. The left paw was untouched.
The nociceptive threshold in the rat was determined with an analgesimeter (Ugo Basile, Varese, Italy), according to the method described by Leighton et al. (Br. J. Pharmacol. 1988, 93, 553-560). Rats scoring below 40 g or over 75 g during the test before drug administration (25%) were rejected. An arbitrary cut-off value of 250 g was adopted.

SMILES: NCC1(CC(=O)O)CCCCC1 [GABAPENTIN, reference compound]
- Paw pressure in rats (g), After Treatment: 46.3 ± 4.2 g
